No constants are given. Whether binding was seen depends on the method and setting. Binding seen in cells or lysates may run through a third protein. Here binding means that the protein was enriched with, or labelled near, the bait; the list need not be complete. Tags and fused reporters may be left off the sequences shown.
T1: HA-tagged Cell division protein A (CdpA-HA) (Haloferax volcanii) (UniProt D4GTB2)
T1 sequence: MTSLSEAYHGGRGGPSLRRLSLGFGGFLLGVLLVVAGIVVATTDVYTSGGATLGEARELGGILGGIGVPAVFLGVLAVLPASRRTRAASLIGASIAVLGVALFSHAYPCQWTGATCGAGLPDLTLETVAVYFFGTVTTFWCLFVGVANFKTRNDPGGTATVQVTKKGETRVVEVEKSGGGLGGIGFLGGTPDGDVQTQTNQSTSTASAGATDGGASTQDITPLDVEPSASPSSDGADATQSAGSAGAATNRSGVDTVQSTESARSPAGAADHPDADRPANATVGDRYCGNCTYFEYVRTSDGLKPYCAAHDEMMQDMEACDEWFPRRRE

T2: HA-tagged FtsZ2 (FtsZ2-HA) (Haloferax volcanii) (UniProt D4GSH7)
T2 sequence: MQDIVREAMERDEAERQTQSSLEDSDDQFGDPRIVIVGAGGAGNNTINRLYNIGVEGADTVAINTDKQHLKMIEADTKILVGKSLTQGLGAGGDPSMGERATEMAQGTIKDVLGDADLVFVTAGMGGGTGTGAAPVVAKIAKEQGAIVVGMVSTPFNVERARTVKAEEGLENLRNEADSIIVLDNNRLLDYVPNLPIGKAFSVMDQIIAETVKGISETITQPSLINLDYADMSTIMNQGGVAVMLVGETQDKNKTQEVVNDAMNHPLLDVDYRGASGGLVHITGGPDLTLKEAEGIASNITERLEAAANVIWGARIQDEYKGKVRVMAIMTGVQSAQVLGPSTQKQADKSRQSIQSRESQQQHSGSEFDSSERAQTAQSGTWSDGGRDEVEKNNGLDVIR

B1: actin-like protein volactin (protein, UniProt D4GU28 1-345)
chain: MAKGLDVGTMNILSASQDGSETVFVQQRNSFVEIDYSDMAEQMLSRSDVLHIRKDDKVYVVGDDALNFANIFGKETRRPMQHGILSSEESSAIPMIKLIIEQVVGSPSRPNERLFYSSPADPIDSDLSTLYHDKTLESMLGDMGYDPEPINEGMAVIYSELADNNFTGLGVSFGAGMTNICLAYYAVPVMQFSIARGGDWIDQQTAQATGTAVDKVTSIKEDDFQLDFRTDVGGVEGALSIYYENLLDYVIENIEREVDEEDIEEGLDVPVVVTGGTSSPEGFEELFEHHLEDSTIPFSVNEVRSIDRPLYSVARGSLVAARSEEESDGGASDPEPEAEAAPESN
B2: CetZ2 (protein, UniProt D4GTC1 1-360)
chain: MKTVLIGVGQAGGKLASALQSFDRQTGFGAVLDAVAVNTAKADLQSLPVETVLIGQDRVNGHGVGGDNELGAAVMESDQTEVMSALDGRVTAEAESIFVVAGLGGGSGSGGAPVLAKALAGVYDVPVYVLGILPGADEGALYQVNAGRSLKTVAREADAVLLVDNDAFRSAGESMSEGYDAINEAIARRVGLLLAAGEATEGVGESVVDTSEVINTLRSGGIAALGYASAEASPNAEDNINAVMSTTRRAVLTGTSLPDASDADAALVVIAGEPDTIPRKGVERARRWVEDETGSMQVRGGDFPLESGRLASLVLLGGVERSERVESFMERAREAIDKAETEPREDPKGMWHSDDLDDLL

Assays:
[1] = molecular target: T1, HA-tagged Cell division protein A (CdpA-HA) (Haloferax volcanii); test: affinity purification with mass spectrometry
[2] = molecular target: T2, HA-tagged FtsZ2 (FtsZ2-HA) (Haloferax volcanii); test: affinity purification with mass spectrometry

binding [1]	binding [2]	Molecule
binds		CdpB1 (from UniProt D4H036)
binds		CdpB2 (from UniProt D4GTJ3)
binds		small GTPase ArvA (from UniProt D4GYC9)
binds		B1
	binds	B2
